Results deposited as PubChem BioAssay AID1259254 (NCATS, 2017).
This is a random part of about 59,000 deposited reagents. Over the whole deposit, about 1,550 (2.6%) are marked active. 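G2 share is only a proxy for re-replication; each gene was hit by three separate siRNAs, and active genes were retested.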 The numbers tell different reagents against one gene apart. Further read-outs or replicates are left out here. The record does not give: the amount of reagent.

- Assay: 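Gene knock-downs that lead to re-replication, shown by excess G2 DNA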 (primary screen)
- System: human HCT116 colorectal cancer cells
- Knock-down reagent: single siRNA against human genes
- Time to read-out: 3 days
- Measurement: 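Nuclei stained with Hoechst and imaged; cell-cycle phase assigned by DNA content; G2 share scaled per plate, non-targeting siRNA 0%, GMNN siRNA 100%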
- Reading the numbers: G2 robust z-score and G2 cells, % of GMNN control: higher = more G2 cells, more excess DNA replication
- Call rule: 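An siRNA counts as active if its G2 robust z-score lies at least 5 MADs above the screen median; here such calls match roughly 38% of GMNN control or more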

TBPL2 (TATA-box binding protein like 2) #1 → G2 robust z-score: 4.36; G2 cells, % of GMNN control: 33.6; call: inactive
TBPL2 (TATA-box binding protein like 2) #2 → G2 robust z-score: 0.368; G2 cells, % of GMNN control: 5.56; call: inactive
TBPL2 (TATA-box binding protein like 2) #3 → G2 robust z-score: -0.48; G2 cells, % of GMNN control: -0.409; call: inactive
DHFR2 (dihydrofolate reductase 2) #1 → G2 robust z-score: -0.274; G2 cells, % of GMNN control: 1.04; call: inactive
DHFR2 (dihydrofolate reductase 2) #2 → G2 robust z-score: -0.987; G2 cells, % of GMNN control: -3.97; call: inactive
DHFR2 (dihydrofolate reductase 2) #3 → G2 robust z-score: -0.453; G2 cells, % of GMNN control: -0.221; call: inactive
LOC645481 (zinc finger protein 248 pseudogene) #1 → G2 robust z-score: 1.99; G2 cells, % of GMNN control: 17; call: inactive
LOC645481 (zinc finger protein 248 pseudogene) #2 → G2 robust z-score: 3.86; G2 cells, % of GMNN control: 30.1; call: inactive
LOC645481 (zinc finger protein 248 pseudogene) #3 → G2 robust z-score: -0.756; G2 cells, % of GMNN control: -2.35; call: inactive
GOSR1 (golgi SNAP receptor complex member 1) #1 → G2 robust z-score: 1.79; G2 cells, % of GMNN control: 15.5; call: inactive
GOSR1 (golgi SNAP receptor complex member 1) #2 → G2 robust z-score: 1.51; G2 cells, % of GMNN control: 13.6; call: inactive
GOSR1 (golgi SNAP receptor complex member 1) #3 → G2 robust z-score: -0.973; G2 cells, % of GMNN control: -3.88; call: inactive

Records above whose gene name starts with L or l (3):
LOC645481 (zinc finger protein 248 pseudogene) #1 → G2 robust z-score: 1.99; G2 cells, % of GMNN control: 17; call: inactive
LOC645481 (zinc finger protein 248 pseudogene) #2 → G2 robust z-score: 3.86; G2 cells, % of GMNN control: 30.1; call: inactive
LOC645481 (zinc finger protein 248 pseudogene) #3 → G2 robust z-score: -0.756; G2 cells, % of GMNN control: -2.35; call: inactive

The list goes on.
ZNF776 (zinc finger protein 776) #1 → G2 robust z-score: 1.45; G2 cells, % of GMNN control: 13.2; call: inactive
ZNF776 (zinc finger protein 776) #2 → G2 robust z-score: 1.85; G2 cells, % of GMNN control: 16; call: inactive
ZNF776 (zinc finger protein 776) #3 → G2 robust z-score: -0.0983; G2 cells, % of GMNN control: 2.28; call: inactive
FLT3 (fms related receptor tyrosine kinase 3) #1 → G2 robust z-score: 0.707; G2 cells, % of GMNN control: 7.94; call: inactive
FLT3 (fms related receptor tyrosine kinase 3) #2 → G2 robust z-score: -1.07; G2 cells, % of GMNN control: -4.59; call: inactive
FLT3 (fms related receptor tyrosine kinase 3) #3 → G2 robust z-score: -0.354; G2 cells, % of GMNN control: 0.478; call: inactive
TNRC18 (trinucleotide repeat containing 18) #1 → G2 robust z-score: -0.935; G2 cells, % of GMNN control: -3.61; call: inactive
TNRC18 (trinucleotide repeat containing 18) #2 → G2 robust z-score: -1; G2 cells, % of GMNN control: -4.07; call: inactive
TNRC18 (trinucleotide repeat containing 18) #3 → G2 robust z-score: -0.703; G2 cells, % of GMNN control: -1.98; call: inactive
CYC1 (cytochrome c1) #1 → G2 robust z-score: 3.03; G2 cells, % of GMNN control: 24.3; call: inactive
CYC1 (cytochrome c1) #2 → G2 robust z-score: 1.96; G2 cells, % of GMNN control: 16.8; call: inactive
CYC1 (cytochrome c1) #3 → G2 robust z-score: 1.07; G2 cells, % of GMNN control: 10.5; call: inactive
